Assay results reported in the supplement of paper PMC8256030.
Structures can show the parent of a compound that is named as a salt. The list shows a part of the results. Repeats in this data set agree poorly, so a single value says little.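 HEK293T cells were given each compound shortly before transfection with a reporter in which red mCherry is followed by the SARS-CoV-2 frameshift element and then GFP in the −1 frame, so GFP appears only after frameshifting.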

Test system: HEK293T
Assay: percent viability (nuclei count) relative to control; higher = more viable cells
Conditions: 10 µM; 24 h

| SMILES | percent viability |
| --- | --- |
| CC1(C)OC(=O)NC1=O [dimethadione] | 97.8% |
| CC(C)COC(=O)c1ccc(N)cc1 [isobutamben] | 87.6% |
| COC(=O)C1=C(C)NC(C)=C(C(=O)OC(C)(C)CN(C)CCC(c2ccccc2)c2ccccc2)C1c1cccc([N+](=O)[O-])c1 (stereo unspecified) [lercanidipine] | 197% |
| CC(C)(Oc1ccc(C(O)c2ccc(Cl)cc2)cc1)C(=O)O (stereo unspecified) [fenirofibrate] | 390% |
| CCc1nn(CCCN2CCN(c3cccc(Cl)c3)CC2)c(=O)n1CCOc1ccccc1 [nefazodone] | 211% |
| C[C@@H]1NC(=O)[C@@H](N)CNC(=O)[C@H](C2CCNC(=N)N2)NC(=O)/C(=C/NC(N)=O)NC(=O)[C@H](CNC(=O)CC(N)CCCN)NC1=O.N=C1NCCC([C@@H]2NC(=O)/C(=C/NC(N)=O)NC(=O)[C@H](CNC(=O)CC(N)CCCN)NC(=O)[C@H](CO)NC(=O)[C@@H](N)CNC2=O)N1 (stereo partly specified) | 303% |
| CO[C@H]1C[C@H](O[C@@H]2/C(C)=C/C[C@@H]3C[C@@H](C[C@]4(CC[C@H](C)[C@@H](C5CCCCC5)O4)O3)OC(=O)[C@@H]3C=C(C)/C(=N/O)[C@H]4OC/C(=C\C=C\[C@@H]2C)[C@]43O)O[C@@H](C)[C@@H]1O | 355% |
| NC(=O)Cc1cccc(C(=O)c2ccccc2)c1N [nepafenac] | 242% |
| N/C(CC(O)COc1cccc2ccccc12)=N/O (stereo unspecified) [nadoxolol] | 405% |
| Clc1cccc(Cl)c1NC1=NCCN1 [Clonidine·HCl] | 281% |
| O=C(O)c1ccccc1Nc1cccc(Cl)c1Cl [clofenamic acid] | 133% |
